Counter-ions that a name gives are not always drawn. The list shows a part of the results. The calls rarely recur for the same compound in another form.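 In K562 cells expressing nanoluciferase-fused kinases, luminescence was recorded at 4 h intervals between 2 and 18 h, normalized as percent of control with DMSO at 100% and a positive control at 0%. A significant (2 sigma) signal drop marks a time point as decreased. The authors' rule for a hit is not shown and takes in more than the number of time points.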
Biological target: CHEK2 (UniProt O96017)
Test: kinase-Nluc reporter destabilization hit call (1 = scored as downregulated) (binary); higher = compound decreases kinase abundance
Settings: K562; 2-18 h

Amino acid sequences for entries named in this document (tags omitted).
UniProt O96017, whole entry: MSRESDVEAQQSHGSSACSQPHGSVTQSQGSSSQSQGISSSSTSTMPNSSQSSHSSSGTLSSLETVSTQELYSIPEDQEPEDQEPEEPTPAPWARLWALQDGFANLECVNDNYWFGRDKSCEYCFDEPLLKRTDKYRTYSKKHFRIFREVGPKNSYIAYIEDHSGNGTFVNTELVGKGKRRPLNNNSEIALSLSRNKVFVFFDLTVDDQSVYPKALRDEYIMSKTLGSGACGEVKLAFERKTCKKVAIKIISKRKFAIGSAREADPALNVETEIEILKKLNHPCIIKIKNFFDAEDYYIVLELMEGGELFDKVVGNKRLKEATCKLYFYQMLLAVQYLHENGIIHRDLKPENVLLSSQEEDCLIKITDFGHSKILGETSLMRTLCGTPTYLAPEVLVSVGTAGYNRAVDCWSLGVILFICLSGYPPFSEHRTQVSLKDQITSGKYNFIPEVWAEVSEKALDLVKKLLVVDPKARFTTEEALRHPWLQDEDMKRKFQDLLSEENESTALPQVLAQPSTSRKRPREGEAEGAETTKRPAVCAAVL
UniProt P07333, whole entry: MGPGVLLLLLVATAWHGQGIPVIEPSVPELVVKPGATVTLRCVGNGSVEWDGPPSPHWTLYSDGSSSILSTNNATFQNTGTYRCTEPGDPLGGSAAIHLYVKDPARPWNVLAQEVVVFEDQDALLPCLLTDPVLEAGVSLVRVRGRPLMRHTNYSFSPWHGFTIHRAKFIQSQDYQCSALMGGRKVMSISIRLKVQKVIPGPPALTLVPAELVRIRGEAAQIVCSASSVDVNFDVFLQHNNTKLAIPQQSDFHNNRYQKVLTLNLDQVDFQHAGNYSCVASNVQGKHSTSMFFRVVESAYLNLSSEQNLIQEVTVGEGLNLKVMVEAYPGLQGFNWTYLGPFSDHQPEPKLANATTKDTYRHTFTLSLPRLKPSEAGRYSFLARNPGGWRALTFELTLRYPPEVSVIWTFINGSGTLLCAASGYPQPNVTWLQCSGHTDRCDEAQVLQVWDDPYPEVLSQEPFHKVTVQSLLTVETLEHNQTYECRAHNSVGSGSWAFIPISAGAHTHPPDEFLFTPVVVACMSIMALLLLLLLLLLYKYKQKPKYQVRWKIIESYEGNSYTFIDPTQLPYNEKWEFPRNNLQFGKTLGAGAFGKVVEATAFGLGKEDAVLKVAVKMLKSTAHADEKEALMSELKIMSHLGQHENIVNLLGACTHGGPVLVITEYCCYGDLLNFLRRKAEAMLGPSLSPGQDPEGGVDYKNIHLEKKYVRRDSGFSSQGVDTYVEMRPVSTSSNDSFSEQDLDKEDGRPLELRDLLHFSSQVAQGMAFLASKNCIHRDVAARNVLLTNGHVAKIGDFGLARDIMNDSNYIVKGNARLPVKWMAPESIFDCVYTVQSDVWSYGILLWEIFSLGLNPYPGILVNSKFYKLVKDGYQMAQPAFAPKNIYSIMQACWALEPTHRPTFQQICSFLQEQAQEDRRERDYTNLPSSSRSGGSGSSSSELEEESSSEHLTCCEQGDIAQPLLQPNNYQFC

kinase-Nluc reporter destabilization hit call, inactive:
CN1CCN(S(=O)(=O)c2ccc(-c3cnc(N)c(C(=O)Nc4cccnc4)n3)cc2)CC1 (10 µM) 0
Cc1cccc([C@@H](CO)NC(=O)[C@@H](C)N2Cc3ccc(-c4nc(NC5CCOCC5)ncc4Cl)cc3C2=O)c1 [ERK1/2 inhibitor 1] (10 µM) 0
COc1cc(CCc2cc(-c3nc4ccc(N5CCN(C)CC5)cc4[nH]3)n[nH]2)cc(OC)c1 (10 µM) 0
Cc1cc(CS(=O)(=O)c2ccccc2)cc(OCc2ccc(CN3CCC[C@@H]3CO)cc2)c1 [PF-543 (Citrate)] (10 µM) 0
Cc1[nH]c(/C=C2\C(=O)Nc3ccc(S(=O)(=O)Cc4c(Cl)cccc4Cl)cc32)c(C)c1C(=O)N1CCC[C@@H]1CN1CCCC1 (2.5 µM) 0
Cc1cc(F)c(C(=O)Nc2cccc(-c3nncn3C(C)C)n2)cc1-n1cnc(C2CC2)c1 [Selonsertib] (10 µM) 0
COCCOc1cc2nccc(Nc3n[nH]c(C)c3C)c2cc1S(=O)(=O)C(C)(C)C [RIP2 kinase inhibitor 2] (2.5 µM) 0

Biological target: CSF1R (UniProt P07333)
Test: as above
Settings: K562; 2-18 h

kinase-Nluc reporter destabilization hit call, inactive:
N#Cc1ccc2[nH]c(O)c(-c3ccc(CN4CCOCC4)cn3)c2c1 (10 µM) 0
O=C1NCCc2[nH]c(-c3ccnc(-c4cnc5ccccc5c4)c3)cc21 (10 µM) 0
Oc1cc(O)cc(/C=C/c2ccc(O)c(O)c2)c1 [Piceatannol] (10 µM) 0
O=C(NOC[C@H](O)CO)c1ccc(F)c(F)c1Nc1ccc(I)cc1F (2.5 µM) 0
Cn1c(=O)n(-c2ccc(C(C)(C)C#N)cc2)c2c3cc(-c4cnc5ccccc5c4)ccc3ncc21 [Dactolisib (Tosylate)] (10 µM) 0
CCCCNc1ncc(-c2ccc(CN3CCOCC3)cn2)c(NC2CCC(O)CC2)n1 (stereo unspecified) (10 µM) 0
O=C(Nc1cc(C(F)(F)F)ccc1N1CCN(Cc2ccccn2)CC1)c1ccc(-c2ccncc2)o1 (10 µM) 0
CC[C@H](CO)Nc1nc(NCc2ccccc2)c2ncn(C(C)C)c2n1 [Seliciclib] (10 µM) 0
COC(=O)c1ccc2c(C(=Nc3ccc(N(C)C(=O)CN4CCN(C)CC4)cc3)c3ccccc3)c(O)[nH]c2c1 [Nintedanib] (2.5 µM) 0
COc1cc(F)cc([C@@H](CO)NC(=O)[C@@H](C)N2Cc3ccc(-c4nc(NC5CCOCC5)ncc4Cl)cc3C2=O)c1 [ERK1/2 inhibitor 2] (10 µM) 0
CC(C)c1ccc2oc3nc(N)c(C(=O)O)cc3c(=O)c2c1 [Amlexanox] (10 µM) 0
CN(C)C[C@@H]1CCn2cc(c3ccccc32)C2=C(C(=O)NC2=O)c2cn(c3ccccc23)CCO1 [Ruboxistaurin (hydrochloride)] (10 µM) 0
CCc1nc(-c2cccc(C)c2)c(-c2ccnc(NC(=O)c3ccccc3)c2)s1 (10 µM) 0
CCOc1cc2ncc(-c3cc(N)nc(F)c3)n2cc1S(=O)(=O)C(C)(C)C (10 µM) 0
CC(C)(/C=C(\C#N)C(=O)N1CCC[C@@H](n2nc(-c3ccc(Oc4ccccc4)cc3F)c3c(N)ncnc32)C1)N1CCN(C2COC2)CC1 (2.5 µM) 0
CCCn1cnc2c(NCc3ccccc3)nc(NC(CC)CO)nc21 (stereo unspecified) [Ca2+ channel agonist 1] (2.5 µM) 0
Brc1c(Br)c(Br)c2n[nH]nc2c1Br (10 µM) 0
Nc1nc(OCC2CCCCC2)c2[nH]cnc2n1 (10 µM) 0
COc1ccc(Oc2cc(NCCC(F)(F)F)c3ncc(-c4ccc(C(=O)NC5CC5)c(C)c4)n3n2)c(F)c1F (2.5 µM) 0
COc1cc(C(=O)NC2CCN(C)CC2)c(F)cc1Nc1ncc2c(n1)N(C1CCCC1)CC(F)(F)C(=O)N2C [TAK-960 (dihydrochloride)] (2.5 µM) 0
COc1ccc(NC(=O)N2CCN(c3nc(N)nc4c3cnn4C)[C@@H](C)C2)c(C)c1 (10 µM) 0
O=C(Nc1ccc(-c2ccnc(Nc3ccc(N4CCOCC4)cc3)n2)cc1)C1CCCN1 (stereo unspecified) (10 µM) 0
COc1nccc(-c2c(-c3ccc(F)cc3)ncn2C2CCC(O)CC2)n1 (stereo unspecified) (10 µM) 0
NC(=O)c1ccc2nc(-c3ccc(Oc4ccc(Cl)cc4)cc3)[nH]c2c1 (10 µM) 0
Cc1cc(C)c(/C=C2\C(=O)Nc3ccccc32)[nH]1 [Semaxinib] (10 µM) 0
CN1CCN(c2ccc(Nc3cc(-c4cccc(-n5ccc6cc(C7CC7)cc(F)c6c5=O)c4CO)cn(C)c3=O)nc2)CC1 (2.5 µM) 0
C=CC(=O)N1CCC[C@@H](n2nc(-c3ccc(Oc4ccccc4)cc3)c(C(N)=O)c2N)C1 [Btk inhibitor 2] (10 µM) 0
Cc1c(NC(=O)c2cc3c(s2)CCCC3)cccc1-c1cn(C)c(=O)c(Nc2ccc([C@@H]3C(=O)N(C)CCN3C)cc2)n1 (10 µM) 0
CCOc1ccn(-c2ccc(F)cc2)c(=O)c1C(=O)Nc1ccc(Oc2ccnc(N)c2Cl)c(F)c1 (10 µM) 0
CCn1c(=O)c2cc(C(N)=O)c(N)nc2n(C2CC2)c1=O (10 µM) 0
COc1cc(C(=O)NC2CCN(C)CC2)ccc1Nc1ncc2c(n1)N(C1CCCC1)CC(F)(F)C(=O)N2C (10 µM) 0
CCN1CCN(c2ccc(Nc3cc(N(C)C(=O)Nc4c(Cl)c(OC)cc(OC)c4Cl)ncn3)cc2)CC1 [Infigratinib] (10 µM) 0
CN1CCN(S(=O)(=O)c2ccc(-c3cnc(N)c(C(=O)Nc4cccnc4)n3)cc2)CC1 (10 µM) 0
Cc1cccc([C@@H](CO)NC(=O)[C@@H](C)N2Cc3ccc(-c4nc(NC5CCOCC5)ncc4Cl)cc3C2=O)c1 [ERK1/2 inhibitor 1] (10 µM) 0
COc1cc(CCc2cc(-c3nc4ccc(N5CCN(C)CC5)cc4[nH]3)n[nH]2)cc(OC)c1 (10 µM) 0
Cc1cc(CS(=O)(=O)c2ccccc2)cc(OCc2ccc(CN3CCC[C@@H]3CO)cc2)c1 [PF-543 (Citrate)] (10 µM) 0
Cc1[nH]c(/C=C2\C(=O)Nc3ccc(S(=O)(=O)Cc4c(Cl)cccc4Cl)cc32)c(C)c1C(=O)N1CCC[C@@H]1CN1CCCC1 (2.5 µM) 0
Cc1cc(F)c(C(=O)Nc2cccc(-c3nncn3C(C)C)n2)cc1-n1cnc(C2CC2)c1 [Selonsertib] (10 µM) 0
COCCOc1cc2nccc(Nc3n[nH]c(C)c3C)c2cc1S(=O)(=O)C(C)(C)C [RIP2 kinase inhibitor 2] (2.5 µM) 0

Source: the supplement of paper PMC12823440, “Inhibitors supercharge kinase turnover through native proteolytic circuits” (Nature, 2025)
